Experimental data taken from patent US10221169B2, “Substituted aminothiazoles for the treatment of tuberculosis” (THE BROAD INSTITUTE, INC., priority 2013, dated 2019).

System: M. tuberculosis
Assay: MIC of control anti-tuberculosis antibiotics
Type: cell-based
Settings: Mycobacterium tuberculosis, MIC used as reference for 10× MIC

Compound: NNC(=O)c1ccncc1 [INH, isoniazid]
- MIC: 0.1 µg/mL
